Values of other authors in patent publication US20030083227A1, “Novel combination therapy to treat glaucoma” (priority 1999, published 2003).

Tested on: pupillary size
Conditions: 1%, unilateral topical application; cited from earlier work

## CC[C@@H]1C(=O)OC[C@@H]1Cc1cncn1C [pilocarpine]
  effect on pupillary size in the contralateral eye: does not alter
